Measured values as given in PMC5691037.

Protein sequences, listed by entry. Tags and fused reporters are not part of them. Residues count along the entry.
UniProt Q86T03, residues 1-207: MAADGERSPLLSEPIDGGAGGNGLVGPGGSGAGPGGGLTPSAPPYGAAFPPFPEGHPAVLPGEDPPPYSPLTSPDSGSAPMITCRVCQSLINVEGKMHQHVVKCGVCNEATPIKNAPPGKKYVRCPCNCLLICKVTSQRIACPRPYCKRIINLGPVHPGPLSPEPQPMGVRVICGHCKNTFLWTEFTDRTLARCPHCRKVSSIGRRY

Biological target: RFP-FKBP-TMEM55B CD (human) (UniProt Q86T03)
Test: affinity purification with mass spectrometry; RFP pull-down on RFP-nanobody beads (Chromotek) from lysates of cells co-expressing RFP-FKBP-TMEM55B CD and LAMP1-CFP-FRB, treated or not with rapamycin; 25 mM Tris-HCl pH 7.5, 300 mM NaCl, 5 mM EDTA, 1% Triton X-100, 2 h at 4 °C; bands cut from SDS-PAGE, trypsin, LTQ Orbitrap Velos

B1: JIP4 (endogenous) (protein, UniProt O60271 1-1321)
chain: MELEDGVVYQEEPGGSGAVMSERVSGLAGSIYREFERLIGRYDEEVVKELMPLVVAVLENLDSVFAQDQEHQVELELLRDDNEQLITQYEREKALRKHAEEKFIEFEDSQEQEKKDLQTRVESLESQTRQLELKAKNYADQISRLEEREAELKKEYNALHQRHTEMIHNYMEHLERTKLHQLSGSDQLESTAHSRIRKERPISLGIFPLPAGDGLLTPDAQKGGETPGSEQWKFQELSQPRSHTSLKVSNSPEPQKAVEQEDELSDVSQGGSKATTPASTANSDVATIPTDTPLKEENEGFVKVTDAPNKSEISKHIEVQVAQETRNVSTGSAENEEKSEVQAIIESTPELDMDKDLSGYKGSSTPTKGIENKAFDRNTESLFEELSSAGSGLIGDVDEGADLLGMGREVENLILENTQLLETKNALNIVKNDLIAKVDELTCEKDVLQGELEAVKQAKLKLEEKNRELEEELRKARAEAEDARQKAKDDDDSDIPTAQRKRFTRVEMARVLMERNQYKERLMELQEAVRWTEMIRASRENPAMQEKKRSSIWQFFSRLFSSSSNTTKKPEPPVNLKYNAPTSHVTPSVKKRSSTLSQLPGDKSKAFDFLSEETEASLASRREQKREQYRQVKAHVQKEDGRVQAFGWSLPQKYKQVTNGQGENKMKNLPVPVYLRPLDEKDTSMKLWCAVGVNLSGGKTRDGGSVVGASVFYKDVAGLDTEGSKQRSASQSSLDKLDQELKEQQKELKNQEELSSLVWICTSTHSATKVLIIDAVQPGNILDSFTVCNSHVLCIASVPGARETDYPAGEDLSESGQVDKASLCGSMTSNSSAETDSLLGGITVVGCSAEGVTGAATSPSTNGASPVMDKPPEMEAENSEVDENVPTAEEATEATEGNAGSAEDTVDISQTGVYTEHVFTDPLGVQIPEDLSPVYQSSNDSDAYKDQISVLPNEQDLVREEAQKMSSLLPTMWLGAQNGCLYVHSSVAQWRKCLHSIKLKDSILSIVHVKGIVLVALADGTLAIFHRGVDGQWDLSNYHLLDLGRPHHSIRCMTVVHDKVWCGYRNKIYVVQPKAMKIEKSFDAHPRKESQVRQLAWVGDGVWVSIRLDSTLRLYHAHTYQHLQDVDIEPYVSKMLGTGKLGFSFVRITALMVSCNRLWVGTGNGVIISIPLTETNKTSGVPGNRPGSVIRVYGDENSDKVTPGTFIPYCSMAHAQLCFHGHRDAVKFFVAVPGQVISPQSSSSGTDLTGDKAGPSAQEPGSQTPLKSMLVISGGEGYIDFRMGDEGGESELLGEDLPLEPSVTKAERSHLIVWQVMYGNE
For B1, the binding was “binds”.

Results are given in words; binding and its absence hold for the method and conditions named. Binding seen in cells or lysates may run through a third protein. These calls come from enrichment with a bait or labelling near it, and not all partners need be listed.
